Test results published in paper PMC10163288.
The list shows a part of the results.

B1: il10ra_site1_sap_21_mot_HHH_b1_03900_000000129_0001_1_16_H_._HHH_b1_06247_0001_0000500016_0000002_0_0001 (protein)
chain: SSSSQEAYELSRRVIEEAVELEEEGDPEEARRLLEEALEQLEELGNPIAVLSLEHLLRLLESSSS
B2: il10ra_site1_sap_18_mot_05ca327611f5605f0dd8494b449afcbf_0001_1_000000248_0001_35_51_H_._HHH_b1_04623_0001_0000100009_0000001_0_0001 (protein)
chain: SSSSSEERRELYELLREAAELDHEGDPEEARRVLEEARELAEELNDWVILMQLRHLEKVVDSSSS
B3: il10ra_site1_normal_mot_HHH_b2_00277_af2_000000172_0001_1_17_H_._HHH_b1_03248_0001_0000200009_0000001_0_af2pred_0001 (protein)
chain: SSSSSSEEEEEVEELLEKAKRIPDPEERAYVLIRAFALASRLGDPELERLVKEVAQELLESSSSS
B4: il10ra_site1_normal_mot_HHH_b2_02053_af2_000000006_0001_3_19_H_._HHH_b1_07676_af2_0001_0000300010_0000003_0 (protein)
chain: SSSSSEREEIYRLLREALHIDDPEEREEVLEEALRLAEELGSEVLRHNIEFALEQARREGSSSSS
B5: il10ra_site1_normal_mot_HHH_b1_02809_af2_000000277_0001_40_57_H_._HHH_b1_00310_af2_0001_0000100002_0000002_0 (protein)
chain: SSSSDTAERALRIQIEAAEQIYEAGNPEYARLALRFAKHLAEELGNEELLEEIERLLKEISSSSS
B6: il10ra_site1_sap_20_mot_HHH_b1_00665_000000097_0001_23_39_H_._HHH_b1_06326_0001_0000300009_0000001_0_0001 (protein)
chain: SSSSDEDYKRAKELIREIVELLREGNPEEAKKVLEELRELAEERNSPVLEAVVRFLEELINSSSS
B7: il10ra_site1_normal_mot_HHH_b2_08186_000000021_0001_43_56_H_._HHH_b1_07456_af2_0001_0000400032_0000001_1 (protein)
chain: SSSSSDLEELIEELEELVERNDREEFLRILQEALQHAFRLGDEEALKILWELLKEMEELSSSSSS
B8: il10ra_site1_sap_16_mot_HHH_b2_07873_af2_000000172_0001_1_19_H_._HHH_b2_06046_0001_0000200005_0000001_0_0001 (protein)
chain: SSSSSDAKEEAEELLEEAEELIKQGDPRAIEVLLRAVRLAFEAGDKELLRELWELAHRLKSSSSS
B9: il10ra_site1_normal_mot_ems_3hM_3637_000000290_0001_1_19_H_._HHH_b2_04512_0001_0000200023_0000001_0_af2pred_0001 (protein)
chain: SSSSSEEKQRAFEILREVAELLKQGDDEEARRLLEEVEEIAEETNDPLLRHSAERARLVIESSSS
B10: il10ra_site1_sap_24_mot_HHH_b1_06914_000000280_0001_1_18_H_._HHH_b2_02502_0001_0000100004_0000002_0_0001_af2pred_dldesign_0_af2pred (protein)
chain: SSSSSSADQKAAEVYVEAVQALEAGDLEKAKELLEKLEKIAKEENSPNAKLMVKYLKSLLSSSSS
B11: il10ra_site1_normal_mot_HHH_b2_03330_000000161_0001_1_19_H_._HHH_b1_00317_af2_0001_0000400017_0000001_1 (protein)
chain: SSSSSELEERIRQLLEELEEAAERGDRELVARLVQEILQLITRLGNDELFHELWELFRRAASSSS
B12: il10ra_site1_normal_mot_HHH_b2_07145_000000158_0001_24_40_H_._HHH_b1_07898_af2_0001_0000200026_0000002_0 (protein)
chain: SSSSDEELFERVRRLIEEIVELLRNGDEERAQELTEEIEELAKEYNNFALKSSAEALKRQLSSSS
B13: il10ra_site1_sap_17_mot_HHH_b2_01986_af2_000000130_0001_1_18_H_._HHH_b1_06455_0001_0000300035_0000002_0_0001 (protein)
chain: SSSSDEEVQELMRLAEEAAELDQNGNPEEARKVAEEAEELAEEAGNMNILMNIRHLLKLINSSSS
B14: il10ra_site1_normal_mot_HHH_b2_02337_000000026_0001_38_52_H_._HHH_b1_04115_0001_0000100013_0000001_0 (protein)
chain: SSSSDREERVEKLIEEAEELLEEGNPREASRVLQEAVRHAFESNDPELLRRIWELVQRIFNSSSS
B15: il10ra_site1_normal_mot_HHH_b1_05254_000000006_0001_1_19_H_._HHH_b2_07597_0001_0000500031_0000001_0_af2pred_0001 (protein)
chain: SSSSSDKEEVEEEVRRLLEEAEESDLEERQKLIREALHLALELNDPELLRLVREFARRLFSSSSS
B16: il10ra_site1_normal_mot_HHH_b1_03333_000000091_0001_1_17_H_._HHH_b1_03241_0001_0000400034_0000001_0 (protein)
chain: SSSSYEEVKELIKRIIELAREGNPEEAEEVLEELERLAEEENNPAVRFVVRLLEEVIKLQSSSSS
B17: il10ra_site1_sap_19_mot_HHH_b1_08281_000000266_0001_42_57_H_._HHH_b1_00478_0001_0000200011_0000001_0_0001 (protein)
chain: SSSSSALEIILEVMELALRGNPEEALELLREAQELAREAGNERLVEMIERLLESLERQLGSSSSS
B18: il10ra_site1_normal_mot_HHH_b2_08143_000000031_0001_38_55_H_._HHH_b2_03077_af2_0001_0000600033_0000001_0 (protein)
chain: SSSSSDREEELQVEALLWFAKQIHNPEALEIALEEAERIARELGNEELEEEVEEVKKELSSSSSS
B19: il10ra_site1_normal_mot_HHH_b2_02116_af2_000000165_0001_41_55_H_._HHH_b2_02079_af2_0001_0000200009_0000001_0 (protein)
chain: SSSSSEEEHLVKTALRLAEEALRAGDPESARRLVRAARILAEENNDEELERLVEEVEKLVNSSSS
B20: il10ra_site1_sap_23_mot_HHH_b2_03568_000000058_0001_1_19_H_._HHH_b1_01191_0001_0000100003_0000001_0_0001 (protein)
chain: SSSSSSSEEERVEELLEEAREIEDRRRVIRLLLEALQLAIQLKDAELLREIWELFHRLSSSSSSS
B21: il10ra_site1_sap_17_mot_HHH_b2_02053_af2_000000006_0001_3_19_H_._HHH_b1_01685_0001_0000100014_0000002_0_0001_af2pred_0001 (protein)
chain: SSSSSIEEKVSELAFEAAELALRGNPEEAEELLEEVERLAKELNDPKLEEAVRILKRFIELSSSS
B22: il10ra_site1_sap_22_mot_HHH_b2_01447_af2_000000258_0001_1_20_H_._HHH_b1_02808_af2_0001_0000200010_0000001_0_0001 (protein)
chain: SSSSSELYRLSREVAELLANGNPEEAQRVIEEAERLAEELNNRVVLYNIRILLRSVELLLRSSSS
B23: il10ra_site1_sap_20_mot_HHH_b1_01886_000000262_0001_1_18_H_._HHH_b1_05552_af2_0001_0000500031_0000001_0_0001_af2pred_dldesign_0_af2pred (protein)
chain: SSSSSDLAAVLAEAEALFARSKTVSPEEKEVILQRIVDLALKHENLEVAKLANELLKELSSSSSS
B24: il10ra_site1_normal_mot_HHH_b1_05357_000000034_0001_23_39_H_._HHH_b1_00943_0002_0000400044_0000001_0_af2pred_0001 (protein)
chain: SSSSSSSKEEVERLLEEAEHVDDPRELAYLLTRAFAIAYRLGDPELEELVKEVAIRLISSSSSSS

Target: il10ra, Q13651
Test: yeast display titration

Apparent Kd, inactive:
B1 no binding seen
B2 no binding seen
B3 no binding seen
B4 no binding seen
B5 no binding seen
B6 no binding seen
B7 no binding seen
B8 no binding seen
B9 no binding seen
B10 no binding seen
B11 no binding seen
B12 no binding seen
B13 no binding seen
B14 no binding seen
B15 no binding seen
B16 no binding seen
B17 no binding seen
B18 no binding seen
B19 no binding seen
B20 no binding seen
B21 no binding seen
B22 no binding seen
B23 no binding seen
B24 no binding seen

2 records drawn at random from those above, as already listed:
Apparent Kd, inactive:
B16 no binding seen
B10 no binding seen
